In PubChem BioAssay AID504834 (National Center for Advancing Translational Sciences (NCATS), 2011):
The whole screen tested about 320,000 compounds, of which about 22,000 (6.9%) were called active. Inconclusive results, whose numbers are uncertain, are shown with a selection of clear calls. The call rests on the fitted dose curve; in most records, active means well fitted inhibition curve with a large enough effect; inconclusive means small, poorly fitted or top-dose-only effect, or another doubt; inactive means no such curve, though single readings can be large or run the other way. Potencies of inconclusive entries are doubtful fits and often do not repeat.
On the % scale 0 is the no-effect control and ±100 the full control effect; potency means the concentration at half of the fitted maximal effect.

Assay: Primary qHTS for delayed death inhibitors of the malarial parasite plastid, 96 hour incubation
Conditions: P. falciparum luciferase reporter growth; series mostly up to 28.7 µM; activity change, negative = inhibition: at the top concentration
Method in brief: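 P. falciparum expressing integrated firefly luciferase grown in erythrocytes (2% hematocrit, 0.05% parasitemia final) with compounds for 96 hours at 37 C, 5% CO2. Growth inhibition read as loss of luminescence after adding luciferase detection reagent.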
For `COc1ccc(S(=O)(=O)N2CCOCC2)cc1NC(=O)CN1CCN(C)CC1`, the “activity change, negative = inhibition” value was inactive: 11.5%.
In the case of `Cc1ccc(S(=O)(=O)N2CCN(C(=O)COc3ccc(-c4nnco4)cc3)CC2)cc1`, the Potency was inconclusive: 0.0026 µM [inhibitor, full curve, poor fit].
With `Cc1nnc(N(Cc2ccco2)C(=O)c2cccc(C#N)c2)s1` the “activity change, negative = inhibition” value was inactive: 97.1%.
In the case of `Cc1cc(C)nc(Sc2ccc([N+](=O)[O-])cc2[N+](=O)[O-])n1`, the “activity change, negative = inhibition” value was inactive: -14.1%.
With `Cc1ccc(-c2noc(CCC(=O)NC3CCN(Cc4ccccc4)CC3)n2)cc1` the Potency was inconclusive: 5.22 µM [inhibitor, partial curve].
For `CC(=O)c1ccc(S(=O)(=O)N2CCN(C(=O)CCC3CCCC3)CC2)cc1`, the Potency was inconclusive: 0.329 µM [inhibitor, partial curve, poor fit].
In the case of `Cc1ccc2nc(N3C(=O)C(O)=C(C(=O)c4ccco4)C3c3ccc(O)cc3)sc2c1` (stereo not given), the Potency was inconclusive: 3.7 µM [inhibitor, single point].
For `O=C(O)c1ccc(N=Nc2c(O)[nH]c3ccc(Br)cc23)cc1`, the Potency was active: 5.22 µM.
With `CCOC(=O)c1ccc(NC(=O)CSc2nnc(Cc3cccs3)n2C)cc1` the Potency was active: 8.28 µM.
For `Nc1c(-c2cccs2)cnn1-c1nc(-c2ccc(Cl)cc2Cl)cs1`, the Potency was inconclusive: 2.62 µM [inhibitor, single point].
For `CC1(C)CC(=O)c2sc(NS(=O)(=O)Cc3ccccc3)nc2C1`, the “activity change, negative = inhibition” value was inactive: 2.47%.
In the case of `O=C(CCCSc1nc2ccccc2[nH]1)NC1CCCCC1`, the Potency was inconclusive: 20.8 µM [inhibitor, partial curve, poor fit].
For `CCOc1ccc2nc(N/C(N)=N/C(=S)Nc3cccc(C)c3)nc(C)c2c1`, the Potency was inconclusive: 9.28 µM [inhibitor, partial curve, poor fit].
In the case of `O=C(Nc1cccc(Cl)c1)c1cc(-c2ccco2)on1`, the “activity change, negative = inhibition” value was inactive: 311%.
For `COc1ccc(C(=O)NC(=S)Nc2cccnc2)cc1[N+](=O)[O-]`, the “activity change, negative = inhibition” value was inactive: 5.48%.
With `Cc1ccccc1Nc1nnc(SCC(=O)Nc2ccccc2[N+](=O)[O-])s1` the Potency was inconclusive: 18.5 µM [inhibitor, single point].
With `O=C(CC1CC2CCC1C2)N1CCN(S(=O)(=O)c2ccccc2[N+](=O)[O-])CC1` (stereo not given) the Potency was active: 10.4 µM.
For `O=C(NC(=S)Nc1ccccc1N1CCOCC1)c1ccc(-c2cccc(Cl)c2)o1`, the Potency was inconclusive: 14.7 µM [inhibitor, single point].
With `Oc1ccccc1-c1nc(NCc2ccco2)c2ccccc2n1` the Potency was inconclusive: 14.7 µM [inhibitor, partial curve, poor fit].
In the case of `Cc1ccc(-c2cc(C(=O)Nc3cc(C)ccc3C)[nH]n2)c(O)c1`, the Potency was inconclusive: 18.5 µM [inhibitor, single point].
